Measurements reported in publication PMC7157757.
These are yes or no findings as the source states them, for the method shown. Some results given as binding are weak or reduced against the parent protein; the word gives no strength.

B1: estrogen-related receptor gamma, recombinant (protein, UniProt P62508 1-458)
chain: MDSVELCLPESFSLHYEEELLCRMSNKDRHIDSSCSSFIKTEPSSPASLTDSVNHHSPGGSSDASGSYSSTMNGHQNGLDSPPLYPSAPILGGSGPVRKLYDDCSSTIVEDPQTKCEYMLNSMPKRLCLVCGDIASGYHYGVASCEACKAFFKRTIQGNIEYSCPATNECEITKRRRKSCQACRFMKCLKVGMLKEGVRLDRVRGGRQKYKRRIDAENSPYLNPQLVQPAKKPYNKIVSHLLVAEPEKIYAMPDPTVPDSDIKALTTLCDLADRELVVIIGWAKHIPGFSTLSLADQMSLLQSAWMEILILGVVYRSLSFEDELVYADDYIMDEDQSKLAGLLDLNNAILQLVKKYKSMKLEKEEFVTLKAIALANSDSMHIEDVEAVQKLQDVLHEALQDYEAGQHMEDPRRAGKMLMTLPLLRQTSTKAVQHFYNIKLEGKVPMHKLFLEMLEAKV
B2: RING finger protein 10, recombinant (protein, UniProt Q8N5U6 1-811)
chain: MPLSSPNAAATASDMDKNSGSNSSSASSGSSKGQQPPRSASAGPAGESKPKSDGKNSSGSKRYNRKRELSYPKNESFNNQSRRSSSQKSKTFNKMPPQRGGGSSKLFSSSFNGGRRDEVAEAQRAEFSPAQFSGPKKINLNHLLNFTFEPRGQTGHFEGSGHGSWGKRNKWGHKPFNKELFLQANCQFVVSEDQDYTAHFADPDTLVNWDFVEQVRICSHEVPSCPICLYPPTAAKITRCGHIFCWACILHYLSLSEKTWSKCPICYSSVHKKDLKSVVATESHQYVVGDTITMQLMKREKGVLVALPKSKWMNVDHPIHLGDEQHSQYSKLLLASKEQVLHRVVLEEKVALEQQLAEEKHTPESCFIEAAIQELKTREEALSGLAGSRREVTGVVAALEQLVLMAPLAKESVFQPRKGVLEYLSAFDEETTEVCSLDTPSRPLALPLVEEEEAVSEPEPEGLPEACDDLELADDNLKEGTICTESSQQEPITKSGFTRLSSSPCYYFYQAEDGQHMFLHPVNVRCLVREYGSLERSPEKISATVVEIAGYSMSEDVRQRHRYLSHLPLTCEFSICELALQPPVVSKETLEMFSDDIEKRKRQRQKKAREERRRERRIEIEENKKQGKYPEVHIPLENLQQFPAFNSYTCSSDSALGPTSTEGHGALSISPLSRSPGSHADFLLTPLSPTASQGSPSFCVGSLEEDSPFPSFAQMLRVGKAKADVWPKTAPKKDENSLVPPAPVDSDGESDNSDRVPVPSFQNSFSQAIEAAFMKLDTPATSDPLSEEKGGKKRKKQKQKLLFSTSVVHTK
B3: mediator of RNA polymerase II transcription subunit 16, recombinant (protein, UniProt Q9Y2X0 1-877)
chain: MCDLRRPAAGGMMDLAYVCEWEKWSKSTHCPSVPLACAWSCRNLIAFTMDLRSDDQDLTRMIHILDTEHPWDLHSIPSEHHEAITCLEWDQSGSRLLSADADGQIKCWSMADHLANSWESSVGSLVEGDPIVALSWLHNGVKLALHVEKSGASSFGEKFSRVKFSPSLTLFGGKPMEGWIAVTVSGLVTVSLLKPSGQVLTSTESLCRLRGRVALADIAFTGGGNIVVATADGSSASPVQFYKVCVSVVSEKCRIDTEILPSLFMRCTTDLNRKDKFPAITHLKFLARDMSEQVLLCASSQTSSIVECWSLRKEGLPVNNIFQQISPVVGDKQPTILKWRILSATNDLDRVSAVALPKLPISLTNTDLKVASDTQFYPGLGLALAFHDGSVHIVHRLSLQTMAVFYSSAAPRPVDEPAMKRPRTAGPAVHLKAMQLSWTSLALVGIDSHGKLSVLRLSPSMGHPLEVGLALRHLLFLLEYCMVTGYDWWDILLHVQPSMVQSLVEKLHEEYTRQTAALQQVLSTRILAMKASLCKLSPCTVTRVCDYHTKLFLIAISSTLKSLLRPHFLNTPDKSPGDRLTEICTKITDVDIDKVMINLKTEEFVLDMNTLQALQQLLQWVGDFVLYLLASLPNQGSLLRPGHSFLRDGTSLGMLRELMVVIRIWGLLKPSCLPVYTATSDTQDSMSLLFRLLTKLWICCRDEGPASEPDEALVDECCLLPSQLLIPSLDWLPASDGLVSRLQPKQPLRLQFGRAPTLPGSAATLQLDGLARAPGQPKIDHLRRLHLGACPTEECKACTRCGCVTMLKSPNRTTAVKQWEQRWIKNCLAVEGRGPDACVTSRASEEAPAFVQLGPQSTHHSPRTPRSLDHLHPEDRP
B4: protein Wnt-2, recombinant (protein, UniProt P09544 26-360)
chain: SWWYMRATGGSSRVMCDNVPGLVSSQRQLCHRHPDVMRAISQGVAEWTAECQHQFRQHRWNCNTLDRDHSLFGRVLLRSSRESAFVYAISSAGVVFAITRACSQGEVKSCSCDPKKMGSAKDSKGIFDWGGCSDNIDYGIKFARAFVDAKERKGKDARALMNLHNNRAGRKAVKRFLKQECKCHGVSGSCTLRTCWLAMADFRKTGDYLWRKYNGAIQVVMNQDGTGFTVANERFKKPTKNDLVYFENSPDYCIRDREAGSLGTAGRVCNLTSRGMDSCEVMCCGRGYDTSHVTRMTKCGCKFHWCCAVRCQDCLEALDVHTCKAPKNADWTTAT

Each binder was assayed against Recombinant human (Myc-DDK-tagged) AKR2 (human) (UniProt Q53H80) (assay: pull-down; recombinant interacting protein incubated with Myc-DDK-tagged AKR2 for 2 h, then 30 min with c-Myc magnetic beads, shaking, room temperature; eluted with Laemmli sample buffer; Western blot with antibodies specific for the interacting protein; both purified).
For B1, the binding was “binds”.
For B2, the binding was “binds”.
With B3 the binding was “binds”.
B4 was tested, and the binding was “binds”.
